According to PubChem BioAssay AID588590 (National Center for Advancing Translational Sciences (NCATS), 2011):
Hit rate of the full screen: of about 390,000 compounds, about 4,000 (1%) were called active. The shares of active, inactive and inconclusive entries below differ from those in the screen. Calls come from the whole dose curve; as a rule, active = well fitted inhibition curve with a large enough effect; inconclusive = small, poorly fitted or top-dose-only effect, or another doubt; inactive = no such curve, though single readings can be large or run the other way. Where the call is inconclusive, the potency comes from a doubtful curve fit.

Protein sequences, listed by entry. Tags and fused reporters are not part of them. Lines headed by an entry give the natural chain unless they say otherwise; changes in a name come on top.
UniProt Q9UNA4: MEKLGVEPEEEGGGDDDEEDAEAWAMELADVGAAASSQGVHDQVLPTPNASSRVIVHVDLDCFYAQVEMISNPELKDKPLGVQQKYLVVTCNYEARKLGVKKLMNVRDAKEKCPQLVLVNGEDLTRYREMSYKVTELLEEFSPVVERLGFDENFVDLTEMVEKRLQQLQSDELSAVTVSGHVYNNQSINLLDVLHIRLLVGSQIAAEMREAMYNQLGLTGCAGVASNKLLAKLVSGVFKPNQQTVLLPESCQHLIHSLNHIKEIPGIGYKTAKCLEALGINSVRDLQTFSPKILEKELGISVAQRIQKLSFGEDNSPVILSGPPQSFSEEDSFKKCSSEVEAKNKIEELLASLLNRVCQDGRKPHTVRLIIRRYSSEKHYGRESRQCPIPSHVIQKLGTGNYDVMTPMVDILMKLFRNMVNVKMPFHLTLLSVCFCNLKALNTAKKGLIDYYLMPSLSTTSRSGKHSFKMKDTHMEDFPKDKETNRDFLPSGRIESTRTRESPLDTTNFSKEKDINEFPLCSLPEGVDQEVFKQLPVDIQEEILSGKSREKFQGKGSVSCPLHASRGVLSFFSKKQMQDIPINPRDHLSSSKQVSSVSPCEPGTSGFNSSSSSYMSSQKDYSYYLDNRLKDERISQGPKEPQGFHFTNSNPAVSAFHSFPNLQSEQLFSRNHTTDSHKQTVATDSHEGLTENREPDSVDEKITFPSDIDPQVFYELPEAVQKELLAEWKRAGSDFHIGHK

Target: DNA polymerase iota (Homo sapiens) (UniProt Q9UNA4)
Test: qHTS for Inhibitors of Polymerase Iota
Conditions: Pol iota fluorescent replication assay, 10 min; series mostly up to 115 µM
How it was run: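 Pol iota at 10 nM preincubated 15 min with compounds at room temperature; reaction started with fluorescent substrate, 50 nM final. Fluorescence read kinetically at 0 and 10 min; buffer-only wells as negative control.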
Potency is the fitted concentration of half-maximal effect.

Compound | Potency
O=c1[nH]c2cc(S(=O)(=O)CCO)ccc2o1 | inconclusive: 6.31 µM [inhibitor, full curve, poor fit]
O=C(O)c1c(-c2ccccc2)oc2ccc(OCc3c(F)cccc3Cl)cc12 | inconclusive: 79.4 µM [inhibitor, single point]
O=C(COc1ccc(S(=O)(=O)N2CCCC2)cc1)N1CCCCC1 | inconclusive: 50.1 µM [inhibitor, partial curve]
CC(=O)Nc1cccc(-c2cc(C)c3cc4c(cc3n2)OCO4)c1 | inconclusive: 44.7 µM [inhibitor, single point]
CN(C)c1ccc(/C=C2\C=Cc3ccccc32)c(F)c1 | inconclusive: 89.1 µM [inhibitor, single point]
COCCNC(=O)CCCn1c(SCC(=O)c2ccc(Br)cc2)nc2c(sc3ccccc32)c1=O | inactive
Cc1ccc(NC(=O)C2C(c3ccccc3)C=CC(c3ccccc3)C2C(=O)O)cc1 (stereo unspecified) | inconclusive: 3.16 µM [inhibitor, full curve, poor fit]
CCN(CC)C(=O)Cn1nc(-c2ccncc2)nc1SCC(=O)Nc1ccc(OC)cc1 | inconclusive: 89.1 µM [inhibitor, single point]
COc1cc(C2OCC3C(c4ccc(OC5OC(CO)C(O)C(O)C5O)c(OC)c4)OCC23)ccc1O (stereo unspecified) | active: 70.8 µM
CCN1CCN(Cc2ccc(NC(=O)c3cc(NC(=O)c4ccno4)cc(OC)c3)cc2C(F)(F)F)CC1 | inactive
COc1ccc(S(=O)(=O)N2CCc3ccccc3C2)cc1 | inconclusive: 39.8 µM [inhibitor, single point]
O=C(CCCCn1c(=O)c2ccccc2n(Cc2cccc(F)c2)c1=O)NCc1ccc2c(c1)OCO2 | inactive
COc1ccccc1/C=C/C(=O)OCC(=O)c1cc(C)n(C)c1C | inconclusive: 79.4 µM [inhibitor, single point]
COc1ccc(C)cc1Nc1n[n+](-c2ccccc2)c(-c2ccc(C(=O)O)cc2)s1 | inconclusive: 15.8 µM [inhibitor, partial curve, poor fit]
O=C(Cn1cnc2ccccc21)Nc1ccccc1-c1ccccc1 | inconclusive: 89.1 µM [inhibitor, single point]
CS(=O)(=O)N1Cc2ccccc2CC1C(=O)O (stereo unspecified) | inconclusive: 28.2 µM [inhibitor, partial curve, poor fit]
CCOC(=O)c1ccc(-c2c(-c3ccccc3OC)sc3cc4c(cc23)OCO4)cc1F | inconclusive: 25.1 µM [inhibitor, single point]
CCN(c1ccccc1)S(=O)(=O)c1cc(C(=O)NCc2ccco2)ccc1C | inconclusive: 50.1 µM [inhibitor, partial curve]
CCOc1ccc(N=C2NC(=O)S/C2=C\c2ccc(N(C)C)cc2)cc1 | inconclusive: 3.55 µM [inhibitor, full curve, poor fit]
O=C(NCc1ccco1)c1ccc2c(c1)N(Cc1ccc(F)cc1)C(=O)c1ccccc1S2=O (stereo unspecified) | inactive
COc1cccc(C(=O)CN2CCN(S(=O)(=O)c3ccc(Cl)cc3)CC2)c1 | inactive

Compound | Potency
CC(=O)Nc1ccc(Nc2cc(C)nc3c(-c4ccc(Cl)cc4)c(C)nn23)cc1 | inconclusive: 112 µM [inhibitor, single point]
O=C(COC(=O)c1ccc(Br)o1)Nc1ccc(S(=O)(=O)N2CCCC2)cc1 | inconclusive: 112 µM [inhibitor, single point]
CCCCCCCCCn1c2c(c(=N)c3c1CCC3)CCCC2 | inconclusive: 31.6 µM [inhibitor, partial curve, poor fit]
Cn1c(/C=C/c2ccc(Br)cc2)c([N+](=O)[O-])c(=O)n(C)c1=O | inconclusive: 25.1 µM [inhibitor, single point]
Cc1ccc(S(=O)(=O)C2CCN(c3nc(-c4cccs4)nc4ccccc34)CC2)cc1 | inactive
O=c1cc(N/N=C/c2ccccc2)[nH]c(=O)[nH]1 | inconclusive: 31.6 µM [inhibitor, partial curve]
O=C(Nc1cccc(S(=O)(=O)NCc2ccco2)c1)c1cccc(Cl)c1 | inconclusive: 39.8 µM [inhibitor, single point]
Nc1ccc(/C=C/c2ccnc3ccccc23)c([N+](=O)[O-])c1 | inactive
CCOc1ccc(NC(=O)Cn2c(CCC(=O)O)ccc2-c2ccc(Cl)cc2)cc1 | inactive
O=C1CCC(C(=O)OCc2cc(Cl)ccc2OC(F)F)N1 (stereo unspecified) | inconclusive: 39.8 µM [inhibitor, single point]
O=C(NCc1cccnc1)C(=O)Nc1cc2c3c(c1)CC(=O)N3CCC2 | inactive
COCCNC(=O)C1Nc2ccc(C(F)(F)F)cc2C2C=CCC12 (stereo unspecified) | inconclusive: 20 µM [inhibitor, single point]
COc1ccc(CCN(C(=O)C(F)(F)F)C(C(=O)NC2CCCC2)c2cccs2)cc1 (stereo unspecified) | inconclusive: 50.1 µM [inhibitor, partial curve, poor fit]
CCOc1ccccc1NC(=O)COC(=O)/C=C/c1cccs1 | inconclusive: 89.1 µM [inhibitor, partial curve]
COc1cc(OC)cc(C(=O)NCC(=O)OCC(=O)N2c3ccccc3NC(=O)C2(C)C)c1 | inactive
COC(=O)c1sc(N2C(=O)C(O)=C(C(=O)c3ccc(C)o3)C2c2ccco2)nc1C (stereo unspecified) | inconclusive: 14.1 µM [inhibitor, full curve, poor fit]
C#CCOCCOCCOCCNc1nc(N2CCN(C(=O)[C@H](CCCCN)n3cc([C@@H](N)CC(N)=O)nn3)CC2)nc(N2CCN(C(=O)[C@H](CCCCN)n3cc([C@@H](N)CC(N)=O)nn3)CC2)n1 | inconclusive: 3.98 µM [inhibitor, full curve]
Cc1ccccc1Cn1c(C)c(CNCc2ccccc2)c(C(=O)O)c1C | inactive
CC(C)(C)C(=O)NC1CC2CCCC(C1)N2C(=O)Nc1cccc(Cl)c1 (stereo unspecified) | inconclusive: 100 µM [inhibitor, single point]
CNC(=O)CCc1ccc(OC)cc1 | inconclusive: 89.1 µM [inhibitor, single point]

Of the compounds above, 2 have an NH in an aromatic ring:
Compound | Potency
O=c1[nH]c2cc(S(=O)(=O)CCO)ccc2o1 | inconclusive: 6.31 µM [inhibitor, full curve, poor fit]
O=c1cc(N/N=C/c2ccccc2)[nH]c(=O)[nH]1 | inconclusive: 31.6 µM [inhibitor, partial curve]
